Patent US20100239556A1, “PROMOTING ECM PRODUCTION BY FIBROBLAST CELLS AND/OR PROMOTING MIGRATION OF FIBROBLAST CELLS IN A BIOLOGICAL SYSTEM” (TGR BioScience Pty Ltd., priority 2006, published 2010)
For some of these results: At least one structure is not confirmed: it was looked up by name or label, or the drawing left a doubt. Some entries share one result that the patent states for a list of compounds. Some compounds share one range, which may span the group rather than tell each member.

B1: horse radish peroxidase (protein, UniProt P00433 31-338, looked up)
Peroxidase C1A: QLTPTFYDNSCPNVSNIVRDTIVNELRSDPRIAASILRLHFHDCFVNGCDASILLDNTTSFRTEKDAFGNANSARGFPVIDRMKAAVESACPRTVSCADLLTIAAQQSVTLAGGPSWRVPLGRRDSLQAFLDLANANLPAPFFTLPQLKDSFRNVGLNRSSDLVALSGGHTFGKNQCRFIMDRLYNFSNTGLPDPTLNTTYLQTLRGLCPLNGNLSALVDFDLRTPTIFDNKYYVNLEEQKGLIQSDQELFSSPNATDTIPLVRSFANSTQTFFNAFVEAMDRMGNITPLTGTQGQIRLNCRVVNSNS

Key:
[1] = tested on: human foreskin fibroblast cells (HFF); experiment: Soluble collagen I, III and VI in HFF conditioned media (direct coat ELISA); assay type: cell-based; details: day 7 versus day 5
Experimental: (§1) Primary human foreskin fibroblast cells (HFF) were seeded into 96 well plates at a density of 1.2×10^4 cells/well and cultured overnight in 10% fetal bovine serum/Dulbecco's minimum essential media (10% FBS/DMEM) at 37° C. and 5% CO2. The cells were then starved overnight in serum free DMEM and triplicate wells treated for six hours with a range of doses of proteins with peroxidase activity; horse radish peroxidase (HRP; 0.2-50 ug/ml), Arthromyces ramosus peroxidase (ARP; 0.2-50 ug/ml), microperoxidase (MP; 8-500 ug/ml), soy bean peroxidase (SBP; 0.2-100 ug/ml) and lactoperoxidase (LP; 10-310 ug/ml) (all obtained from Sigma-Aldrich). At the end of the six hour treatment period, the media was aspirated and replaced with fresh serum free DMEM and the cells cultured for a further 72 hours. […] Briefly, cells were bathed in a 10% Alamar Blue/phosphate-buffered saline (PBS) solution for 30-60 minutes and fluorescence measured at wavelengths of 485 nm excitation and 595 nm emission using a Wallac Victor Multilabel HTS counter. Relative fluorescent units (RFU) for each sample were normalized to control wells (DMEM only treated cells) and data expressed as mean±standard error of the mean (sem) for triplicate wells. […]
The amount of soluble collagen types I, III, and VI in HFF conditioned media was measured by a direct coat ELISA method using standard curves constructed from purified human collagen I, III or VI (extracted from human placenta; col I, BD Biosciences; col III and VI, Rocklands Immunochemicals) and fibronectin (extracted from human plasma, Chemicon). […] After a final wash (6×PBS-T), enhancement solution was added for at least 10 minutes and fluorescence measured at excitation 340 nm and emission 615 nm using a Wallac Victor Multilabel HTS counter. The respective ECM concentration of each sample was determined from the standard curve (μg/ml) and normalized to control wells (DMEM only treated cells) with the mean±sem for triplicate wells calculated. […]

[2] = tested on: HFF cells; experiment: Collagen I production in the presence of dexamethasone; assay type: cell-based, human; details: dexamethasone 20 μM
Experimental: as §1, with “Sigma-Aldrich). […] After 72 hours” for “Sigma-Aldrich). At”, “the culture” for “the end of the six hour treatment period, the”, “was collected for assessment of secreted, soluble collagen types I, III” for “was aspirated”, “and VI as well as fibronectin protein” for “and replaced with fresh serum free DMEM”, “cells assessed” for “cells cultured”, “for viability/growth using an alamar blue fluorescent dye assay.” for “for a further 72 hours.”

Molecule	collagen I concentration in day 7 cells lower than the day 5 cells [1]	inhibition of collagen induction by cells treated for 6 hours with TGFβ2 [2]
soy bean peroxidase [SBP]	20-30%	
lactoperoxidase [LP]	20-30%	
C[C@@H]1C[C@H]2[C@@H]3CCC4=CC(=O)C=C[C@]4(C)[C@@]3(F)[C@@H](O)C[C@]2(C)[C@@]1(O)C(=O)CO [dexamethasone]		totally inhibited
B1	20-30%	
